Measurements published in article PMC6482433.
No constants are given. Whether binding was seen depends on the method and setting. Binding calls can cover weak binding; strength is not graded here. For part of these data: Where a sequence is shown, tags or fusion partners need not be part of it. For part of these data: In cells and extracts the contact can be indirect.

B1: MePCE (7SK γ-methylphosphate capping enzyme), endogenous (protein, UniProt Q7L2J0 1-689)
chain: MIEMAAEKEPFLVPAPPPPLKDESGGGGGPTVPPHQEAASGELRGGTERGPGRCAPSAGSPAAAVGRESPGAAATSSSGPQAQQHRGGGPQAQSHGEARLSDPPGRAAPPDVGEERRGGGGTELGPPAPPRPRNGYQPHRPPGGGGGKRRNSCNVGGGGGGFKHPAFKRRRRVNSDCDSVLPSNFLLGGNIFDPLNLNSLLDEEVSRTLNAETPKSSPLPAKGRDPVEILIPKDITDPLSLNTCTDEGHVVLASPLKTGRKRHRHRGQHHQQQQAAGGSESHPVPPTAPLTPLLHGEGASQQPRHRGQNRDAPQPYELNTAINCRDEVVSPLPSALQGPSGSLSAPPAASVISAPPSSSSRHRKRRRTSSKSEAGARGGGQGSKEKGRGSWGGRHHHHHPLPAAGFKKQQRKFQYGNYCKYYGYRNPSCEDGRLRVLKPEWFRGRDVLDLGCNVGHLTLSIACKWGPSRMVGLDIDSRLIHSARQNIRHYLSEELRLPPQTLEGDPGAEGEEGTTTVRKRSCFPASLTASRGPIAAPQVPLDGADTSVFPNNVVFVTGNYVLDRDDLVEAQTPEYDVVLCLSLTKWVHLNWGDEGLKRMFRRIYRHLRPGGILVLEPQPWSSYGKRKTLTETIYKNYYRIQLKPEQFSSYLTSPDVGFSSYELVATPHNTSKGFQRPVYLFHKARSPSH
B2: GST-tagged catalytic domain of MePCE (cMePCE; residues 400-689) (domain or fragment, UniProt Q7L2J0 400-689)
chain: PLPAAGFKKQQRKFQYGNYCKYYGYRNPSCEDGRLRVLKPEWFRGRDVLDLGCNVGHLTLSIACKWGPSRMVGLDIDSRLIHSARQNIRHYLSEELRLPPQTLEGDPGAEGEEGTTTVRKRSCFPASLTASRGPIAAPQVPLDGADTSVFPNNVVFVTGNYVLDRDDLVEAQTPEYDVVLCLSLTKWVHLNWGDEGLKRMFRRIYRHLRPGGILVLEPQPWSSYGKRKTLTETIYKNYYRIQLKPEQFSSYLTSPDVGFSSYELVATPHNTSKGFQRPVYLFHKARSPSH
B3: LARP7, endogenous (protein, UniProt Q4G0J3 1-582)
chain: METESGNQEKVMEEESTEKKKEVEKKKRSRVKQVLADIAKQVDFWFGDANLHKDRFLREQIEKSRDGYVDISLLVSFNKMKKLTTDGKLIARALRSSAVVELDLEGTRIRRKKPLGERPKDEDERTVYVELLPKNVNHSWIERVFGKCGNVVYISIPHYKSTGDPKGFAFVEFETKEQAAKAIEFLNNPPEEAPRKPGIFPKTVKNKPIPALRVVEEKKKKKKKKGRMKKEDNIQAKEENMDTSNTSISKMKRSRPTSEGSDIESTEPQKQCSKKKKKRDRVEASSLPEVRTGKRKRSSSEDAESLAPRSKVKKIIQKDIIKEASEASKENRDIEISTEEEKDTGDLKDSSLLKTKRKHKKKHKERHKMGEEVIPLRVLSKSEWMDLKKEYLALQKASMASLKKTISQIKSESEMETDSGVPQNTGMKNEKTANREECRTQEKVNATGPQFVSGVIVKIISTEPLPGRKQVRDTLAAISEVLYVDLLEGDTECHARFKTPEDAQAVINAYTEINKKHCWKLEILSGDHEQRYWQKILVDRQAKLNQPREKKRGTEKLITKAEKIRLAKTQQASKHIRFSEYD
B4: GST-tagged LARP7 (protein, UniProt Q4G0J3 1-582)
chain: METESGNQEKVMEEESTEKKKEVEKKKRSRVKQVLADIAKQVDFWFGDANLHKDRFLREQIEKSRDGYVDISLLVSFNKMKKLTTDGKLIARALRSSAVVELDLEGTRIRRKKPLGERPKDEDERTVYVELLPKNVNHSWIERVFGKCGNVVYISIPHYKSTGDPKGFAFVEFETKEQAAKAIEFLNNPPEEAPRKPGIFPKTVKNKPIPALRVVEEKKKKKKKKGRMKKEDNIQAKEENMDTSNTSISKMKRSRPTSEGSDIESTEPQKQCSKKKKKRDRVEASSLPEVRTGKRKRSSSEDAESLAPRSKVKKIIQKDIIKEASEASKENRDIEISTEEEKDTGDLKDSSLLKTKRKHKKKHKERHKMGEEVIPLRVLSKSEWMDLKKEYLALQKASMASLKKTISQIKSESEMETDSGVPQNTGMKNEKTANREECRTQEKVNATGPQFVSGVIVKIISTEPLPGRKQVRDTLAAISEVLYVDLLEGDTECHARFKTPEDAQAVINAYTEINKKHCWKLEILSGDHEQRYWQKILVDRQAKLNQPREKKRGTEKLITKAEKIRLAKTQQASKHIRFSEYD

Experiments:
[1] = target: 3XFLAG-epitope-tagged RBM7 (RNA-binding motif protein 7); test: co-IP; anti-FLAG M2 affinity gel on whole-cell extracts of HEK293 Flp-In T-REx cells expressing the 3XFLAG-tagged bait (tetracycline 16 h); buffer C (20 mM Tris-HCl, 0.5% NP-40, 150 mM NaCl, 1.5 mM MgCl2, 10 mM KCl, 10% glycerol, 0.5 mM EDTA, pH 7.9), 4 h at 4°C; cells exposed to DMSO or 10 μM 4-NQO (2 h unless noted), in some panels RBM7 siRNA or washout; western blot
[2] = target: maltose-binding protein (MBP)-tagged RBM7; test: pull-down; MBP pull-down: 10 μg MBP or MBP-RBM7 with 25 μg prey protein in 100 μL binding buffer (20 mM HEPES pH 7.6, 150 mM NaCl, 1 mM TCEP), amylose beads, 2 h at 4°C, eluted with 30 mM maltose; Coomassie-stained gels; both purified
[3] = target: mRNP1 mutant maltose-binding protein (MBP)-tagged RBM7; test: as above

Row | Binder | binding [1] | binding [2] | binding [3]
1 | B1 | binds |  | 
2 | B2 |  | binds | binds
3 | B3 | binds |  | 
4 | B4 |  | binds | binds
